Results are given in words; binding and its absence hold for the method and conditions named. Binding seen in cells or lysates may run through a third protein. Here binding means that the protein was enriched with, or labelled near, the bait; the list need not be complete. Where a sequence is shown, tags or fusion partners need not be part of it.
T1: NRP2-9xMyc (NAP1-RELATED PROTEIN 2, C-terminally 9xMyc-tagged) (Arabidopsis) (UniProt Q8LC68)
T1 sequence: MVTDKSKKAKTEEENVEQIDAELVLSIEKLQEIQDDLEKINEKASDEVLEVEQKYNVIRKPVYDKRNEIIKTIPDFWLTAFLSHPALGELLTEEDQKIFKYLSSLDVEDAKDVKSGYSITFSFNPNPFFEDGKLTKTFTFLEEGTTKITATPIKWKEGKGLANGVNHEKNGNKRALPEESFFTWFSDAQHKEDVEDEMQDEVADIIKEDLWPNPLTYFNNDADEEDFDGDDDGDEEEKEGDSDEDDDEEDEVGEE

T2: NRP2-3xFlag (NAP1-RELATED PROTEIN 2, C-terminally 3xFlag-tagged) (Arabidopsis) (UniProt Q8LC68)
T2 sequence: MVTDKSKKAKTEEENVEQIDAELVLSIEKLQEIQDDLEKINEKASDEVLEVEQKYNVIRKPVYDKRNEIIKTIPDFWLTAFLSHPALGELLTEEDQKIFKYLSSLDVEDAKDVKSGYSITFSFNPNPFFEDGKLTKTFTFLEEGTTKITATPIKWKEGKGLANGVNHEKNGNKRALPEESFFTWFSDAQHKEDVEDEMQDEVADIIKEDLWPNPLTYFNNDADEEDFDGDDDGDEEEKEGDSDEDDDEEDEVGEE


Tests used:
[1] = molecular target: T1, NRP2-9xMyc (NAP1-RELATED PROTEIN 2, C-terminally 9xMyc-tagged) (Arabidopsis); assay: affinity purification with mass spectrometry; NRP2-9xMyc from young inflorescences held on streptavidin-coupled magnetic beads, 1 h at 4 °C, IP buffer, released by 3C cleavage overnight; three replicates; Columbia plants as negative control
[2] = molecular target: T2, NRP2-3xFlag (NAP1-RELATED PROTEIN 2, C-terminally 3xFlag-tagged) (Arabidopsis); assay: affinity purification with mass spectrometry; NRP2-3xFlag from young inflorescences held on FLAG M2 magnetic beads, 4 °C 2 h, IP buffer (50 mM Tris pH 7.6, 150 mM NaCl, 5 mM MgCl2, 10% glycerol, 0.1% NP-40), eluted with 3X FLAG peptides; Columbia plants as negative control

binding [1]	binding [2]	Binder
binds	binds	NAP1-RELATED PROTEIN 1 (NRP1), endogenous (protein, UniProt Q9CA59 1-256) MVADKSKKSKIEEKGEEENLEQIDAELVLSIEKLQEIQDDLEKINEKASDEVLEVEQKYNVIRKPVYDKRNEVIQSIPGFWMTAFLSHPALGDLLTEEDQKIFKYLNSLEVEDAKDVKSGYSITFHFTSNPFFEDAKLTKTFTFLEEGTTKITATPIKWKEGKGLPNGVNHDDKKGNKRALPEESFFTWFTDAQHKEDAGDEIHDEVADIIKEDLWSNPLTYFNNDADEEDFDGDDDGDEEGEEDDDDEEEEDGEE
binds	binds	Transcriptional Factor B3 family protein (At4g31620) (protein, UniProt Q8VZQ9 1-492) MANHPLSSSRSNRPFFVRSLAGHTSNLIIPDEFFTAHLEGKTGLTKLKLTSDASDRIWDVRLNGRRFAGGWDDFSAAHCLRDDDVLVFRLDVKMVFHVTPSGRSFSQIRTSSSSGDYDSDDDDDEAGDDDSDSKNISLKKKSRFEAESSSSEKYCLLGLTASNLRLNRVSFTKHFSRANGLTKRCCMIDLMNLSGESWTLGLRHNKRTGQAFIRGRWRSFCHANELKPGSFYRFKLVRNGTRPLLQLCFKVIPQGNCSNSKANGKANVSEKYSREDGSASTKQNKFLTVTLKHYMIQSGQLRLRRSFVRENGIKEAEEIILVDKNGVEWPSYVSSSKQRREFYMAHGWIRFCEANKLKTGETFTLEFVRGEGTTPMLKFCSEAKIEQEEAPEERGTPLPKRARVSAEVGHSRRTQAPNKSSDDPKILQRKQPLQPCSFSDQAKKVKQSIVNILTGIKRFRSELELKERNLEAALLEIDALGDKVSEINKILK
